From PubChem BioAssay AID624291 (National Center for Advancing Translational Sciences (NCATS), 2012)
Out of some 350,000 compounds screened, about 220 (0.063%) were called active. This list was built around the results that the source calls inconclusive (neither active nor inactive); the mix of calls is not that of the screen. Calls come from the whole dose curve; as a rule, active = well fitted activation curve with a large enough effect; inconclusive = small, poorly fitted or top-dose-only effect; inactive = no such curve, though single readings can be large or run the other way. A potency beside an inconclusive call is a rough fit, not a confirmed value.

Test: qHTS for Activators of Integrin-Mediated Alleviation for Muscular Dystrophy; note: nearly all actives have a fitted effect of over 60% in size;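 for activation: 100% = response of the positive control SU9516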
Details: alpha7betagal myoblasts, beta-gal FDG fluorescence, 48 h; activation: at 38.3 µM (top of the series)
How it was run: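 alpha7betagal+/- myoblasts (passage 13, 250/well) treated 48 h at 37C with compounds at 1:260 dilution of DMSO stock. Lysed, then beta-galactosidase activity read as FDG fluorescence (ex 480/em 540) after 30 min, with pre-read for autofluorescence.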
Potency is the fitted concentration of half-maximal effect.

| Structure (SMILES) | Potency | activation |
| --- | --- | --- |
| N#CCSc1ccsc1C(=O)Nc1ccc(F)cc1 | inconclusive: 3.16 µM [activator, single point] |  |
| Cc1[nH]c2ccc(C(=O)N3CCN(c4ccc(F)cc4)CC3)cc2c1C | inconclusive: 5.01 µM [activator, single point] |  |
| COc1cccc(/C=N/n2c(N)c(S(=O)(=O)c3cccs3)c3nc4ccccc4nc32)c1 | inconclusive: 3.55 µM [activator, single point] |  |
| COc1ccc(OC)c(-n2c(C)ccc2-c2ccc(S(C)(=O)=O)cc2)c1 |  | inactive: 1.46% |
| O=C(O)Cn1c(=O)c2c3c(sc2n(Cc2ccc(Cl)cc2Cl)c1=O)CCCC3 | inconclusive: 6.31 µM [activator, partial curve, poor fit] |  |
| COc1cc([N+](=O)[O-])ccc1NC(=O)CN1CCOCC1 | inconclusive: 5.01 µM [activator, single point] |  |
| COc1ccc(C(=O)OCCc2ccc(O)cc2)cc1 |  | inactive: 22.5% |
| CCOc1ccccc1NC(=O)COc1coc(CN2CCc3ccccc3C2)cc1=O |  | inactive: -6.66% |
| NS(=O)(=O)c1cccc(NC(=O)CN2CCN(S(=O)(=O)c3ccc4c(c3)OCCO4)CC2)c1 |  | inactive: 2.33% |
| Cc1ccc(S(=O)(=O)NCc2ccc(C(=O)NC3CCC(O)CC3)cc2)cc1C (centres undefined) |  | inconclusive: 30.3% [activator] |
| COc1cc2cc(CN(Cc3cccs3)C(=S)Nc3ccc(C)cc3)c(=O)[nH]c2cc1OC | inconclusive: 12.6 µM [activator, single point] |  |
| CC(C)C(=O)Nc1nnc(COc2ccc(Cl)cc2)s1 | inconclusive: 7.08 µM [activator, partial curve, poor fit] |  |
| COc1cc2oc(=O)cc(C)c2c(OC)c1OC | inconclusive: 3.16 µM [activator, single point] |  |
| O=C(COC(=O)/C=C/c1cccc(Cl)c1)NCCc1ccc(Cl)cc1Cl | inconclusive: 5.01 µM [activator, single point] |  |
| CCN1/C(=C2/SC(=S)N(NC(C)=O)C2=O)Sc2ccccc21 | inconclusive: 8.91 µM [activator, partial curve, poor fit] |  |
| COc1cc(-c2ccc(Nc3ccccc3C(=O)O)c(OC)c2)ccc1Nc1ccccc1C(=O)O | inconclusive: 11.2 µM [activator, partial curve, poor fit] |  |
| Cc1ccsc1/C=N/n1c(-c2ccco2)n[nH]c1=S |  | inactive: 17.3% |
| CC1CCN(C(=S)NC(=O)c2ccco2)CC1 | inconclusive: 3.55 µM [activator, single point] |  |
| COc1ccc(/C=N/NC2=NS(=O)(=O)c3ccccc32)cc1 |  | inactive: -27.7% |
| C/C(=N\Nc1nc2ccccc2nc1C)c1ccccc1O |  | inactive: 4.87% |
| O=c1c(=Nc2ccccc2O)c(=O)c2ccccc12 |  | inactive: -27.4% |
| Nc1c(-c2ccccc2)cnc2c(-c3ccccc3)cnn12 | inconclusive: 10 µM [activator, partial curve, poor fit] |  |

| Structure (SMILES) | Potency | activation |
| --- | --- | --- |
| Cc1nc2ccccn2c1C(=O)N/N=C/c1ccccc1Cl | inconclusive: 2.82 µM [activator, partial curve, poor fit] |  |
| COC(=O)CCN(c1ccccc1)S(=O)(=O)c1cc(-c2cc(C)no2)ccc1OC |  | inactive: 5.86% |
| CC1CC(C)CN(S(=O)(=O)N2CCC(C(=O)NCc3ccco3)CC2)C1 (centres undefined) | inconclusive: 10 µM [activator, single point] |  |
| CC(=O)N1/C(=C/c2ccc(N(C)C)cc2)C(=O)c2ccccc21 |  | inactive: -50.4% |
| CS(=O)(=O)Cc1ccc(C(=O)N(CCc2ccccc2)Cc2ccccc2)cc1 | inconclusive: 3.16 µM [activator, partial curve, poor fit] |  |
| Cc1nc2c3ccccc3nc(NNC(=O)CCC(=O)N3CCC(C)CC3)n2n1 | inconclusive: 3.55 µM [activator, single point] |  |
| C=CCn1c(SCC(=O)N(C)C2CCS(=O)(=O)C2)nnc1-c1ccncc1 (centres undefined) |  | inactive: 20.7% |
| COC(=O)Cn1cc(S(=O)(=O)NCc2ccc(C)cc2)c2cc([N+](=O)[O-])ccc21 |  | inactive: 25.4% |
| O=c1c(-c2cccc(Cl)c2)c[nH]n1-c1ccccc1 | inconclusive: 20 µM [activator, partial curve, poor fit] |  |
| COc1cccc(NC(=O)N2CCC(NC(=O)C(Cc3cccc(C)c3)NC(C)=O)CC2)c1 (centres undefined) | inconclusive: 3.55 µM [activator, single point] |  |
| CC(C)(C)c1ccc(C2=NC(=O)C(CC(=O)O)S2)cc1 (centres undefined) | inconclusive: 5.01 µM [activator, single point] |  |
| CC(=O)c1c(C)[nH]c(C(=O)Nc2ccc(C)c(S(=O)(=O)N(C)C)c2)c1C | inconclusive: 11.2 µM [activator, single point] |  |
| O=C(Nn1cnc2ccccc2c1=O)c1ccccc1F | inconclusive: 5.01 µM [activator, single point] |  |
| Cc1cc(Cl)ccc1NC(=O)/C=N/O | inconclusive: 28.2 µM [activator, single point] |  |
| COc1ccc(-n2nnnc2SCC(=O)N2CCCC2=O)cc1 | inconclusive: 28.2 µM [activator, single point] |  |
| C(=N\N1CCN(Cc2cccc3ccccc23)CC1)/c1cccs1 |  | inactive: 16.1% |
| COc1ccc(-c2cc(C)no2)cc1S(=O)(=O)N1CCOc2ccc(C)cc21 | inconclusive: 2.82 µM [activator, partial curve, poor fit] |  |
| O=C(c1ccc(S(=O)(=O)N2CCCC2)cc1)N1CCCCCC1 | inconclusive: 2.51 µM [activator, partial curve, poor fit] |  |
| Clc1ccc(C=Cc2ccccn2)cc1 | inconclusive: 2 µM [activator, full curve, poor fit] |  |
| C=CCN(c1ccccc1C(=O)O)S(=O)(=O)/C=C/c1ccccc1 | inconclusive: 11.2 µM [activator, partial curve, poor fit] |  |
| Cc1cc(Cl)c2oc(C(=O)N3CCCCC3CCN3CCCC3=O)c(C)c2c1 (centres undefined) | inconclusive: 22.4 µM [activator, single point] |  |
| O=C(NCCc1ccc(OC(F)F)cc1)C1CC(=O)N(c2ccc3c(c2)OCCO3)C1 (centres undefined) | inconclusive: 28.2 µM [activator, single point] |  |

13 entries already listed, ordered by formula weight, ascending.

| Structure (SMILES) | Potency | activation |
| --- | --- | --- |
| Cc1cc(Cl)ccc1NC(=O)/C=N/O | inconclusive: 28.2 µM [activator, single point] |  |
| COc1cc2oc(=O)cc(C)c2c(OC)c1OC | inconclusive: 3.16 µM [activator, single point] |  |
| O=c1c(=Nc2ccccc2O)c(=O)c2ccccc12 |  | inactive: -27.4% |
| COc1ccc(C(=O)OCCc2ccc(O)cc2)cc1 |  | inactive: 22.5% |
| O=C(Nn1cnc2ccccc2c1=O)c1ccccc1F | inconclusive: 5.01 µM [activator, single point] |  |
| COc1ccc(-n2nnnc2SCC(=O)N2CCCC2=O)cc1 | inconclusive: 28.2 µM [activator, single point] |  |
| Cc1[nH]c2ccc(C(=O)N3CCN(c4ccc(F)cc4)CC3)cc2c1C | inconclusive: 5.01 µM [activator, single point] |  |
| COc1ccc(OC)c(-n2c(C)ccc2-c2ccc(S(C)(=O)=O)cc2)c1 |  | inactive: 1.46% |
| Cc1nc2c3ccccc3nc(NNC(=O)CCC(=O)N3CCC(C)CC3)n2n1 | inconclusive: 3.55 µM [activator, single point] |  |
| Cc1cc(Cl)c2oc(C(=O)N3CCCCC3CCN3CCCC3=O)c(C)c2c1 (centres undefined) | inconclusive: 22.4 µM [activator, single point] |  |
| O=C(COC(=O)/C=C/c1cccc(Cl)c1)NCCc1ccc(Cl)cc1Cl | inconclusive: 5.01 µM [activator, single point] |  |
| COc1cccc(NC(=O)N2CCC(NC(=O)C(Cc3cccc(C)c3)NC(C)=O)CC2)c1 (centres undefined) | inconclusive: 3.55 µM [activator, single point] |  |
| COc1cccc(/C=N/n2c(N)c(S(=O)(=O)c3cccs3)c3nc4ccccc4nc32)c1 | inconclusive: 3.55 µM [activator, single point] |  |
